Assay results reported in patent publication US20110262490A1, “POLYMER-AGENT CONJUGATES, PARTICLES, COMPOSITIONS, AND RELATED METHODS OF USE” (priority 2009, published 2011).
Read-outs that look alike come from different tables or passages of the source. Some of these results come from one statement about several compounds together.

Tests used:
ADR-RES tumor = settings: listed as free docetaxel;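 note: tumor volume and body weight recorded thrice weekly while dosing and twice weekly afterwards, with animals checked for morbidity and adverse effects on the same schedule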
B16.F10 tumor [1] = experiment: Efficacy and tolerability in mouse melanoma model B16.F10 (Example 61); settings: 15 mg/kg IV 1/wk×3; listed as free docetaxel
B16.F10 tumor [2] = experiment: Efficacy and tolerability in B16.F10 murine melanoma model (Example 43); format: in vivo, mouse; settings: 15 mg/kg IV q4dq3dx3; listed as docetaxel
Protocol: Refer to table for detailed description of formulations.
Tumor volume was calculated with the following equation: (width×width×length)/2 mm^3. […] Health monitoring was conducted three times a week to evaluate lethargy, tremors, hypothermia, ataxia, hind limb paralysis etc.

In the case of `CC(=O)O[C@@]12CO[C@@H]1C[C@H](O)[C@@]1(C)C(=O)[C@H](O)C3=C(C)[C@@H](OC(=O)[C@H](O)[C@@H](NC(=O)OC(C)(C)C)c4ccccc4)C[C@@](O)([C@@H](OC(=O)c4ccccc4)[C@H]21)C3(C)C` [Free docetaxel, docetaxel], the “Maximum body weight loss” value (ADR-RES tumor; 30 mg/kg IV 1/biwk×3) is reported as < 10%, the “Maximum body weight loss” value (ADR-RES tumor; 30 mg/kg IV 1/wk×2) is reported as < 10% and the “Maximum body weight loss” value (B16.F10 tumor [1]) is reported as < 3%. For the same compound, the “Tumor growth inhibition (TGI)” value (B16.F10 tumor [2]) was 90-92%.
